Patent US20040116436A1, “Treatment of dementia and parkinson's disease” (priority 2002, published 2004)

System: alpha 2 receptor
Conditions: applied IP

SMILES | concentration at which therapeutic effects begin
Brc1c(NC2=NCCN2)ccc2nccnc12 [Brimonidine, brimonidine] | 10 micrograms/kg
Clc1cccc(Cl)c1N=C1NCCN1 [Clonidine, clonidine] | about 100 micrograms/kg
